Assay results as given in patent publication USRE32098E (Research and Education Institute, Inc., priority 1978, dated 1986).

Assay: Serum T4 concentration by this RIA
Set-up: species or system human

SMILES: N[C@@H](Cc1cc(I)c(Oc2cc(I)c(O)c(I)c2)c(I)c1)C(=O)O [T4, thyroxine]
- Serum T4 (Mean ± SEM) (Estrogen-treated): 13.2 ± 0.79 ug/100 ml
- Serum T4 (Mean ± SEM) (Euthyroid): 8.33 ± 0.38 ug/100 ml
- Serum T4 (Mean ± SEM) (Hyperthyroid): 24.6 ± 1.39 ug/100 ml
- Serum T4 (Mean ± SEM) (Hypothyroid): 3.45 ± 0.36 ug/100 ml
